The list shows a part of the results. These are further read-outs of the screen, such as a control signal, another cell line or another target. No call is given for them. The list favours compounds with an active or inconclusive main result. Words in brackets tell the shape of the fitted curve; partial curves, single points and poor fits give uncertain potencies.

A short description of the experiment: qHTS Assay for Lipid Storage Modulators in Drosophila S3 Cells.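 On cell number change: cells counted by Cell Tracker Red CMTPX staining in the red channel.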 Particulars: BODIPY lipid droplet fluorescence, 18-24 h; for cell number change: measured here: cell count max response, cells fed with added oleic acid. A digest of the protocol: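 Drosophila S3 cells loaded with oleic acid (400 uM, as added) and compounds at several concentrations; lipid droplets imaged by 488-nm laser-scanning cytometry, 500–530 nm intensity and object ratio to cell channel. Percent activity normalized to 20 uM Triacsin C.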
(qHTS replaces the single test concentration by a dilution series.)

Setting [1] is: measured here: lipid fluorescence (Fed channel) AC50, cells fed with added oleic acid.
[2] abbreviates: measured here: cell number channel AC50, cells fed with added oleic acid.

One may read the AC50 as the concentration giving half of the maximal activity seen. With `CCOc1ccc(NC(=O)CN2CCN(S(=O)(=O)c3ccc(Cl)cc3)CC2)cc1`, the cell number change stood at 25.3%. In addition, the AC50 under setting [1] was 29.1 µM [rising, single point].
As to `Cc1cc(C)cc(OCC(=O)OCC(=O)NCc2ccco2)c1`, under setting [1], the AC50 is 6.51 µM [falling, single point].
With `Cc1cc(CN(C)C(=O)CCc2nnc(Cc3cccc(C(F)(F)F)c3)o2)on1`, the cell number change is -8.32%.
Turning to `O=C(Nc1ccncc1)c1cc(S(=O)(=O)N2CCN(c3ccccc3)CC2)ccc1Cl`, under setting [1], the AC50 is 25.9 µM [falling, single point].
Turning to `N#CC1=C(N)OC2=C(C(=O)CCC2)C1c1ccncc1` (configuration not stated), the cell number change was -11.6%. For the same compound, under setting [1], the AC50 was 32.6 µM [rising, partial curve, poor fit].
`NS(=O)(=O)c1ccc(NC(=O)c2ccc3c(c2)OCO3)cc1`: the cell number change worked out at 30.1%.
Still for that read-out and setting: as for `COCCNC(=O)c1ccc(-n2c(SCc3cccnc3)nc3ccccc3c2=O)cc1`, the figure is 94.7%.
Consider `O=C(Nc1cccc2c1CCCC2)c1ccccc1F`, for which the cell number change was determined as 5.25%. Besides, the AC50 under setting [1] is 29.1 µM [rising, single point].
For `CCS(=O)(=O)N1N=C(c2cccs2)CC1c1cc2cc(C)ccc2nc1Cl` (configuration not stated), the cell number change came to 50.5%. Under setting [2], the AC50 is 14.6 µM [rising, partial curve].
For the compound `CC1CCCN(C(=O)/C(=C/c2ccco2)NC(=O)c2ccccc2)C1` (configuration not stated), the cell number change is 8.57%. For the same compound, the AC50 under setting [1] is 0.206 µM [rising, single point].
For `CCN1/C(=C/c2cc[n+](C)cc2)C=Cc2cc(C)ccc21`, the cell number change was -10.2%.
As to `Cc1occc1C(=O)N1CCN(C(c2ccccc2)c2ccccc2)CC1`, the cell number change is -126%. In addition, under setting [2], the AC50 is 29.1 µM [falling, single point]. Besides, the AC50 under setting [1] was 29.1 µM [falling, single point].
In the case of `O=C(NCc1ccc(F)cc1)c1cnc2n(c1=O)CCS2`, the cell number change is 34.7%. Also, under setting [2], the AC50 is 7.31 µM [rising, partial curve]. Moreover, the AC50 under setting [1] is 7.31 µM [rising, partial curve].
As for `CN(C)S(=O)(=O)n1cc(/C=C(\NC(=O)c2ccccc2)C(=O)N2CCOCC2)c2ccccc21`, the cell number change is 80.7%. In addition, the AC50 under setting [2] is 29.1 µM [rising, single point].
As to `COc1ccc(S(=O)(=O)N2CCN(CC(O)COc3ccc(C#N)cc3)CC2)cc1OC` (configuration not stated), the cell number change worked out at 15.4%.
With `CCCC(C)NC(=O)CN(c1ccc2c(c1)OCCO2)S(=O)(=O)c1ccccc1` (configuration not stated), the cell number change is -22.1%. The AC50 under setting [1] is 29.1 µM [rising, single point].
As for `COc1cccc(Sc2ccccc2/C=N/NC(N)=O)c1`, the AC50 is, setting by setting: under setting [2], 1.64 µM [rising, partial curve, poor fit]; under setting [1], 0.651 µM [rising, single point].
For the compound `Cc1ccc(NNC(=O)c2cccs2)cc1Cl`, the AC50 under setting [1] is 1.84 µM [rising, partial curve].
`CCOc1ccc(CC(=O)Nc2c(C(=O)Nc3ccccc3)oc3ccccc23)cc1OCC`: the cell number change was -43.4%. Also, the AC50 under setting [2] is 29.1 µM [falling, single point]. In addition, under setting [1], the concentration at half-maximal activity (AC50) is 29.1 µM [falling, single point].
Regarding `O=C(OCN1C(=O)c2ccccc2C1=O)c1cccc(S(=O)(=O)N2CCOCC2)c1`, the cell number change came to 1.62%. Besides, the half-maximal activity concentration (AC50) under setting [1] was 0.651 µM [rising, full curve].
For `Cc1ccc(C2=NN(C(=O)CNCCO)C(c3cccs3)C2)cc1` (configuration not stated), the cell number change was -1.65%. In addition, under setting [1], the AC50 is 29.1 µM [rising, single point].
As to `O=C(NCCCn1ccnc1)c1ccc(N2CCCCCC2)c([N+](=O)[O-])c1`, the cell number change stood at 49.1%. Further, the AC50 under setting [2] was 9.2 µM [rising, partial curve, poor fit]. In addition, the AC50 under setting [1] is 0.116 µM [rising, full curve, poor fit].
On to `O=C(Nc1ccccc1)C1=C[C@H](c2ccccc2)C[C@H](OCc2ccc(CO)cc2)O1`, for which the cell number change was found to be 13.5%. Moreover, the AC50 under setting [1] is 2.06 µM [rising, partial curve, poor fit].
Take `c1ccc(Cc2noc(CN3CCN(Cc4ccc5c(c4)OCO5)CC3)n2)cc1`: the cell number change came to 8.51%. The AC50 under setting [1] was 20.6 µM [rising, partial curve, poor fit].
Take `CCOc1ccc(S(=O)(=O)/N=C(\N)c2ccccc2)cc1`: the cell number change was 3.63%. In addition, the AC50 under setting [1] is 0.411 µM [rising, full curve, poor fit].
As to `COc1ccc(C2CC(=O)C3=C(C2)Nc2ccccc2N(C(=O)C2CC2)C3c2cccnc2)cc1OC` (configuration not stated), the cell number change amounted to 40.4%. In addition, the AC50 under setting [2] was 2.59 µM [rising, full curve, poor fit]. The concentration at half-maximal activity (AC50) under setting [1] is 23.1 µM [rising, partial curve].
In the case of `COc1ccc(Cn2ccnc2)cc1[N+](=O)[O-]`, the cell number change is -34.9%. The AC50 under setting [2] was 32.6 µM [falling, single point]. The AC50 under setting [1] is 6.51 µM [falling, single point].
`CC(C)/C=C/C(=O)N1CCCC(N2CCN(c3ccccc3F)CC2)C1` (configuration not stated): the cell number change was 1.72%. Further, the AC50 under setting [1] is 0.326 µM [rising, partial curve, poor fit].
As to `CC(c1ccccc1)n1c(Br)nc2c1c(=O)[nH]c(=O)n2C` (configuration not stated), the cell number change came out at 20.1%.
For `O=C(CNC(=O)c1sc2ccccc2c1Cl)NCc1ccccc1`, the cell number change is -18.4%. For the same compound, the AC50 under setting [1] was 5.8 µM [falling, full curve].
`Cc1ccc(S(=O)(=O)NCCCCCC(=O)NCCc2ccccc2)cc1`: the cell number change is -5.5%.
With `CCCC(C)NCC(=O)Nc1ccccc1-c1ccccc1` (configuration not stated), the cell number change was determined as 33%. Besides, the AC50 under setting [2] was 16.4 µM [rising, single point]. Moreover, under setting [1], the AC50 is 6.51 µM [rising, single point].
In the case of `C=CCSc1nccc(=O)[nH]1`, the cell number change stood at 4.94%. The AC50 under setting [1] was 25.9 µM [rising, single point].
As for `Cc1oc2cc3c(C(=O)N4CCCCC4)c(C)oc3cc2c1C(=O)N1CCCCC1`, the cell number change was 47.7%. Further, the AC50 under setting [2] is 1.64 µM [rising, full curve, poor fit]. In addition, the AC50 under setting [1] was 0.00461 µM [rising, full curve, poor fit].
Consider `C=CCNC(=O)[C@@H]1CSC2c3ccc(OC)c(OC)c3C(=O)N21` (some centres not stated), for which the cell number change amounted to 28.5%. Further, under setting [1], the half-maximal activity concentration (AC50) was 32.6 µM [rising, partial curve, poor fit].
Turning to `Cc1c(CC(=O)N2CCN(C(=O)C3COc4ccccc4O3)CC2)c(=O)oc2cc(O)c(Cl)cc12` (configuration not stated), the cell number change was -26.3%. Also, under setting [1], the AC50 was 29.1 µM [falling, single point].
With `CCN(CC)C(=S)SCC(=O)Nc1nc(-c2ccccc2)c(-c2ccccc2)o1`, the cell number change was -4.06%.
On the same count and under the same terms, for `CNCCOc1nc(N2CCOCC2)nc(C)c1[N+](=O)[O-]` the value was 4.89%.

Values taken from PubChem BioAssay AID2685 (National Center for Advancing Translational Sciences (NCATS), 2010).
